Assay results reported in PubChem BioAssay AID504834 (National Center for Advancing Translational Sciences (NCATS), 2011).
The whole screen tested about 320,000 compounds, of which about 22,000 (6.9%) were called active. Inconclusive results, whose numbers are uncertain, are shown with a selection of clear calls. Calls follow the shape of the dose curve; as a rule, active = well fitted inhibition curve with a large enough effect; inconclusive = small, poorly fitted or top-dose-only effect, or another doubt; inactive = no such curve, though single readings can be large or run the other way. A potency beside an inconclusive call is a rough fit, not a confirmed value.

Assay: Primary qHTS for delayed death inhibitors of the malarial parasite plastid, 96 hour incubation
Conditions: P. falciparum luciferase reporter growth; series mostly up to 28.7 µM
Outline: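 P. falciparum expressing integrated firefly luciferase grown in erythrocytes (2% hematocrit, 0.05% parasitemia final) with compounds for 96 hours at 37 C, 5% CO2. Growth inhibition read as loss of luminescence after adding luciferase detection reagent.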
Potency is read from the fitted curve at half-maximal effect.

SMILES | Potency
CCCCn1c(=O)c(C(=O)NCc2ccc(Cl)cc2)c(O)c2ccccc21 | inconclusive: 13.1 µM [inhibitor, single point]
c1cncc(-c2nc(NCCCn3ccnc3)c3ccccc3n2)c1 | inconclusive: 1.47 µM [inhibitor, full curve, poor fit]
Cc1cc([N+](=O)[O-])c2ccccc2[n+]1[O-] | inactive
O=C(CC1C(=O)NCCN1CCCc1ccccc1)NCCc1ccccc1Cl (stereo not drawn) | inconclusive: 18.5 µM [inhibitor, single point]
COc1ccc(CC(=O)N(CC2CCCO2)c2nc3ccccc3s2)cc1 (stereo not drawn) | inconclusive: 18.5 µM [inhibitor, single point]
O=C(Nc1nc2ccccc2s1)c1cc(-c2ccccc2)nn1-c1ccccc1 | inconclusive: 18.5 µM [inhibitor, single point]
N#C/C(=C/C=C/c1ccccc1)C(=O)Nc1ccccc1 | inconclusive: 1.47 µM [inhibitor, partial curve, poor fit]
COC(=O)c1cc(S(=O)(=O)NCCc2cccc(C)c2)cn1C | inactive
O=c1c2ccccc2c(=O)n2n1Cc1ccccc1C2 | inactive
CCN(CC(=O)Nc1ccc2c(c1)OCCO2)C(=O)c1ccc(Cl)cc1Cl | inactive
Cc1cccc(C)c1NC(=O)c1ccc(-n2cnnn2)cc1 | inconclusive: 2.08 µM [inhibitor, partial curve]
CCOC(=O)CCNCc1ccc(F)cc1 | inactive
CCn1ncc(C2=NOC(C(=O)Nc3cc(OC)c(Cl)cc3OC)C2)c1C (stereo not drawn) | inconclusive: 20.8 µM [inhibitor, single point]
CC(C)(C)c1ccc(S(=O)(=O)N2CCN(c3ncccn3)CC2)cc1 | inactive
CC(C)C[C@H](CO)Nc1nc(N(C)c2cccc(Cl)c2)c2ncn(C(C)C)c2n1 | active: 13.1 µM
CCN1CCC(CNCc2cn(-c3ccc(OC)cc3)nc2-c2ccccc2Cl)C1 (stereo not drawn) | inconclusive: 7.38 µM [inhibitor, partial curve, poor fit]
c1ccc(-c2csc(-c3ccncc3)n2)cc1 | inconclusive: 2.08 µM [inhibitor, full curve]
Cc1nn(-c2ccccc2)c(Cl)c1/C=N/NC(=O)OC(C)(C)C | inconclusive: 18.5 µM [inhibitor, single point]
COc1cc(C2C(C#N)=C(N)Oc3n[nH]c(C)c32)ccc1OC(=O)c1ccccc1 (stereo not drawn) | active: 16.5 µM
C=CCn1c(=N)n(CC(O)COc2ccccc2OC)c2ccccc21 (stereo not drawn) | inconclusive: 18.5 µM [inhibitor, single point]
CCOC(=O)c1cnc2c(c(C)nn2C)c1Oc1ccc(OC)cc1 | inconclusive: 9.28 µM [inhibitor, single point]
CC[C@H](C)[C@H](NC(N)=O)C(=O)NNC(=O)c1ccc(COc2cccc3cccnc23)cc1 | inactive

SMILES | Potency
CC(C)C(NC(=O)c1ccc(S(=O)(=O)N2CCOCC2)cc1)c1nc2ccccc2[nH]1 (stereo not drawn) | active: 13.1 µM
O=C(O)c1cccc(NS(=O)(=O)c2ccc(C3CCCCC3)cc2)c1 | inconclusive: 0.0738 µM [inhibitor, full curve, poor fit]
O=c1cc2oc3cc(O)c(O)cc3c(-c3ccccc3O)c-2cc1O | active: 3.7 µM
CCCc1c(C(=O)N/N=C/c2ccc(OCc3ccccc3)c(OC)c2)nnn1-c1nonc1N | inconclusive: 11.7 µM [inhibitor, single point]
O=C(CNCc1ccccn1)Nc1cc(C(F)(F)F)ccc1N1CCOCC1 | inconclusive: 14.7 µM [inhibitor, partial curve, poor fit]
C/C(=N\Nc1c(Cl)c(Cl)nc(C(=O)O)c1Cl)c1ccc(O)cc1 | inactive
CCOCCCNc1ncnc2c1[nH]c1ccccc12 | inconclusive: 10.4 µM [inhibitor, single point]
Cc1cc(C)n(-c2ccc(C(=O)N3CCC(CO)(Cc4ccccc4)CC3)cc2)n1 | inconclusive: 4.15 µM [inhibitor, partial curve, poor fit]
COc1ccccc1NC(=O)CN1CCN(CC(=O)Nc2cc(NC(C)=O)ccc2OC)CC1 | inconclusive: 0.465 µM [inhibitor, single point]
CC1Sc2ccc(S(=O)(=O)CCC(=O)N3CCCCC3)cc2NC1=O (stereo not drawn) | inconclusive: 9.28 µM [inhibitor, partial curve, poor fit]
COc1ccc2sc(N(CCN(C)C)C(=O)/C=C/c3cccs3)nc2c1 | inconclusive: 18.5 µM [inhibitor, single point]
CCCC[C@@H]1CN=C(N)N1CCc1cc(C(F)(F)F)cc(C(F)(F)F)c1 | inconclusive: 5.22 µM [inhibitor, partial curve]
O=S(=O)(c1cnc[nH]1)N1CCN(c2ccccc2)CC1 | inconclusive: 18.5 µM [inhibitor, single point]
O=C(CCc1nnc2n(Cc3ccc(Cl)cc3)c(=O)c3ccccc3n12)N1CCN(c2ccccn2)CC1 | inconclusive: 18.5 µM [inhibitor, single point]
C[C@H]1C[C@@H]2[C@@H]([C@@H](O)C[C@@]3(C)[C@H]2CC[C@]3(O)C(=O)CO)[C@@]2(C)C=CC(=O)C=C12 | inconclusive: 9.07 µM [inhibitor, partial curve, poor fit]
CCC(C)(C)NC(=O)C(OC(=O)c1ccco1)c1ccccc1OC (stereo not drawn) | inconclusive: 14.7 µM [inhibitor, single point]
Cc1ccccc1CCN(C(=O)Cn1nnc2ccccc21)C(C(=O)NC(C)(C)C)c1ccsc1 (stereo not drawn) | active: 1.17 µM
CC1=C(C(=O)N2CCCC(N3CCN(c4cccc(C(F)(F)F)c4)CC3)C2)OCCO1 (stereo not drawn) | active: 13.1 µM
O=C(CN1c2ccccc2Sc2ccccc21)N/N=C/c1ccc([N+](=O)[O-])cc1 | inconclusive: 13.1 µM [inhibitor, single point]
O=C(NNC(=O)c1cc2cc3ccccc3nc2s1)c1cccc(C(F)(F)F)c1 | inactive
O=C(COC(=O)Cc1c[nH]c2ccccc12)Nc1cccc2ccccc12 | inconclusive: 13.1 µM [inhibitor, single point]

Given in CSV form: entries from further up.
SMILES,Potency
CCN(CC(=O)Nc1ccc2c(c1)OCCO2)C(=O)c1ccc(Cl)cc1Cl,inactive
CCN1CCC(CNCc2cn(-c3ccc(OC)cc3)nc2-c2ccccc2Cl)C1 (stereo not drawn),"inconclusive: 7.38 µM [inhibitor, partial curve, poor fit]"
O=C(CN1c2ccccc2Sc2ccccc21)N/N=C/c1ccc([N+](=O)[O-])cc1,"inconclusive: 13.1 µM [inhibitor, single point]"
